Counter-ions that a name gives are not always drawn. Some of the results follow. Most entries show no effect beyond the scatter of the controls.

The experiment deals with hPSC-derived cortical neurons (WA09). The experiment is described as follows: nucleus area z-score vs screen plate; higher = larger nuclei (more mature). The settings on record: 5 µM; treatment: days 7-14 after plating, readout day 21.
Molecule `COc1ccc2[nH]c([S+]([O-])Cc3ncc(C)c(OC)c3C)nc2n1` (centres undefined) [Tenatoprazole] gave a nucleus area z-score of 0.454. Next, `COc1cc([C@@H]2c3cc4c(cc3[C@@H](O[C@@H]3O[C@@H]5CO[C@@H](c6cccs6)O[C@H]5[C@H](O)[C@H]3O)[C@H]3COC(=O)[C@H]23)OCO4)cc(OC)c1O` [Teniposide]: -5.39; `COc1cc(OC)c(C=C2C(=O)Nc3ccccc32)c(OC)c1`: -5.58; `COc1ccc(Cl)cc1C(=O)NCCc1ccc(S(=O)(=O)NC(=O)NC2CCCCC2)cc1` [Glyburide]: 0.636. Next, `Nc1ncn([C@H]2C[C@H](O)[C@@H](CO)O2)c(=O)n1` [Decitabine]: -0.00135. As for `Cc1cc2c(F)c(Oc3ncnn4cc(OC[C@@H](C)OC(=O)[C@H](C)N)c(C)c34)ccc2[nH]1`, the nucleus area z-score stood at 2.55. Next, `COc1ccc2cc([C@H](C)C(=O)O)ccc2c1` [Naproxen]: -0.0461; `CC[C@H](c1ccc(O)cc1)[C@@H](CC)c1ccc(O)cc1` [Hexestrol]: 1.83; `N[C@@H](CSCCCO)C(=O)O` [Fudosteine]: 0.084. Next, `CCc1c(Cl)c(O)c(Cl)c(O)c1C(=O)O[C@H]1[C@H](O)[C@H](OC)[C@H](OC/C2=C\C=C\C[C@H](O)/C(C)=C/[C@H](CC)[C@@H](O[C@@H]3OC(C)(C)[C@@H](OC(=O)C(C)C)[C@H](O)[C@@H]3O)/C(C)=C/C(C)=C/C[C@@H]([C@@H](C)O)OC2=O)O[C@@H]1C` [Fidaxomicin]: 0.76; `Cc1nc(C#Cc2ccnc(Cl)c2)c(C)n1-c1ccc(OC(F)(F)F)cc1`: 0.64; `CCOc1ccn(-c2ccc(F)cc2)c(=O)c1C(=O)Nc1ccc(Oc2ccnc(N)c2Cl)c(F)c1`: -0.00945. Next, `Cc1c(-c2ccccc2)oc2c(C(=O)OCCN3CCCCC3)cccc2c1=O` [Flavoxate HCl]: -0.585.

For `C[C@H](CCC(=O)O)[C@H]1CC[C@H]2[C@@H]3C(=O)C[C@@H]4CC(=O)CC[C@]4(C)[C@H]3CC(=O)[C@]12C` [Dehydrocholic acid], the nucleus area z-score came out at 0.496. In the case of `CNC(=O)c1cc(Oc2ccc(NC(=O)Nc3cc(C(C)(C)C)nn3-c3ccc4ncccc4c3)c(F)c2)ccn1` [DCC-2036 (Rebastinib)] it was -1.98; in that of `Cc1cnc(Nc2ccc(N3CCN(C)CC3)cc2)nc1Nc1cccc(S(=O)(=O)NC(C)(C)C)c1`, -3.47; in that of `CN(C)CCC(c1ccc(Cl)cc1)c1ccccn1` (centres undefined) [Chlorpheniramine Maleate], -0.241. Next, `O=C(NC1CCOCC1)c1ccc(-c2cc(-c3c[nH]nc3-c3ccccn3)ccn2)cc1`: 1.09; `C[C@H](CCC(=O)O)[C@H]1CC[C@H]2[C@@H]3[C@@H](O)C[C@@H]4C[C@H](O)CC[C@]4(C)[C@H]3CC[C@]12C` [Ursodiol]: 0.884; `CCC/N=C1\S/C(=C\c2ccc(OC[C@H](O)CO)c(Cl)c2)C(=O)N1c1ccccc1C` [Ponesimod]: 1.14. `OC[C@H]1O[C@@H](Oc2ccc(O)cc2)[C@H](O)[C@@H](O)[C@@H]1O` [Arbutin] registered a nucleus area z-score of -0.182. Next, `CCCCc1ncc(/C=C(\Cc2cccs2)C(=O)O)n1Cc1ccc(C(=O)O)cc1` [Eprosartan Mesylate]: -2.4. Next, `CCn1cc(-c2ccnc3[nH]c(-c4cccc(CN(C)C)c4)cc23)c(-c2ccc(NC(=O)N(C)C)cc2)n1`: -3.17; `CCOC(=O)[C@@H](N)Cc1ccc(-c2cc(O[C@H](c3ccc(Cl)cc3-n3ccc(C)n3)C(F)(F)F)nc(N)n2)cc1` [Telotristat Etiprate (LX 1606 Hippurate)]: 0.294.

For the molecule `COc1ccc(S(=O)(=O)Nc2cccnc2Nc2ccc(O)cc2)cc1`, the nucleus area z-score is -4.89. In the case of `CC(C)c1cnn2c(NCc3ccccc3)cc(NCCCCCCN)nc12` it was -4.08; in that of `Cn1cc(-c2cnn3c(N)c(Br)c([C@@H]4CCCNC4)nc23)cn1`, -0.312.

In turn, `C[C@@H]1COC(Nc2ccc3ncnc(Nc4ccc(OCc5nccs5)c(Cl)c4)c3c2)=N1` [Varlitinib] displayed a nucleus area z-score of 0.287. Consider `COc1ccc(-c2coc3cc(O)cc(O)c3c2=O)cc1` [Biochanin A], for which the nucleus area z-score was determined as 0.789. In the case of `CC(C)(O)c1ccccc1CC[C@@H](SCC1(CC(=O)O)CC1)c1cccc(/C=C/c2ccc3ccc(Cl)cc3n2)c1` [Montelukast Sodium] it was 0.624; in that of `CN(C)CCOc1ccc(-c2nc(-c3ccncc3)c(-c3ccc4c(c3)CC/C4=N\O)[nH]2)cc1`, -14. In the case of `CC(C)(C)NC(=O)[C@H]1CC[C@H]2[C@@H]3CC[C@H]4NC(=O)C=C[C@]4(C)[C@H]3CC[C@]12C` [Finasteride] it was 0.084; in that of `CC(C)(Cc1ccc2ccccc2c1)NC[C@@H](O)COc1cccc(Cl)c1C#N`, -1.79.

`CCOC(=O)c1c(CSc2ccccc2)n(C)c2cc(Br)c(O)c(CN(C)C)c12` [Arbidol HCl] returned a nucleus area z-score of 0.543. Next, `CO/N=C(\C(=O)N[C@@H]1C(=O)N2C(C(=O)O)=C(CSC(=O)c3ccco3)CS[C@H]12)c1csc(N)n1` [Ceftiofur HCl]: 1.14. As for `O=C(CCCN1CCC(O)(c2ccc(Cl)cc2)CC1)c1ccc(F)cc1` [Haloperidol], the nucleus area z-score was -2.08.

As for `C#Cc1cccc(Nc2ncnc3cc(OC)c(OCCCCCCC(=O)NO)cc23)c1`, the nucleus area z-score is -8.53. Next, `Cc1onc(-c2ccccc2Cl)c1C(=O)N[C@@H]1C(=O)N2[C@@H]1SC(C)(C)[C@@H]2C(=O)O` [Cloxacillin Sodium]: 0.209. In the case of `COc1cc2nc(N3CCN(C(=O)C4COc5ccccc5O4)CC3)nc(N)c2cc1OC` (centres undefined) [Doxazosin Mesylate] it was 0.487.
